Results as given in PubChem BioAssay AID651768 (National Center for Advancing Translational Sciences (NCATS), 2012).
Screen size: about 360,000 compounds; about 1,700 (0.47%) were called active. The shares of active, inactive and inconclusive entries below differ from those in the screen. Calls come from the whole dose curve; as a rule, active = well fitted inhibition curve with a large enough effect; inconclusive = small, poorly fitted or top-dose-only effect; inactive = no such curve, though single readings can be large or run the other way. Where the call is inconclusive, the potency comes from a doubtful curve fit.

The chains behind the UniProt entries cited, without tags or fusion partners.
UniProt Q14191, whole entry, looked up: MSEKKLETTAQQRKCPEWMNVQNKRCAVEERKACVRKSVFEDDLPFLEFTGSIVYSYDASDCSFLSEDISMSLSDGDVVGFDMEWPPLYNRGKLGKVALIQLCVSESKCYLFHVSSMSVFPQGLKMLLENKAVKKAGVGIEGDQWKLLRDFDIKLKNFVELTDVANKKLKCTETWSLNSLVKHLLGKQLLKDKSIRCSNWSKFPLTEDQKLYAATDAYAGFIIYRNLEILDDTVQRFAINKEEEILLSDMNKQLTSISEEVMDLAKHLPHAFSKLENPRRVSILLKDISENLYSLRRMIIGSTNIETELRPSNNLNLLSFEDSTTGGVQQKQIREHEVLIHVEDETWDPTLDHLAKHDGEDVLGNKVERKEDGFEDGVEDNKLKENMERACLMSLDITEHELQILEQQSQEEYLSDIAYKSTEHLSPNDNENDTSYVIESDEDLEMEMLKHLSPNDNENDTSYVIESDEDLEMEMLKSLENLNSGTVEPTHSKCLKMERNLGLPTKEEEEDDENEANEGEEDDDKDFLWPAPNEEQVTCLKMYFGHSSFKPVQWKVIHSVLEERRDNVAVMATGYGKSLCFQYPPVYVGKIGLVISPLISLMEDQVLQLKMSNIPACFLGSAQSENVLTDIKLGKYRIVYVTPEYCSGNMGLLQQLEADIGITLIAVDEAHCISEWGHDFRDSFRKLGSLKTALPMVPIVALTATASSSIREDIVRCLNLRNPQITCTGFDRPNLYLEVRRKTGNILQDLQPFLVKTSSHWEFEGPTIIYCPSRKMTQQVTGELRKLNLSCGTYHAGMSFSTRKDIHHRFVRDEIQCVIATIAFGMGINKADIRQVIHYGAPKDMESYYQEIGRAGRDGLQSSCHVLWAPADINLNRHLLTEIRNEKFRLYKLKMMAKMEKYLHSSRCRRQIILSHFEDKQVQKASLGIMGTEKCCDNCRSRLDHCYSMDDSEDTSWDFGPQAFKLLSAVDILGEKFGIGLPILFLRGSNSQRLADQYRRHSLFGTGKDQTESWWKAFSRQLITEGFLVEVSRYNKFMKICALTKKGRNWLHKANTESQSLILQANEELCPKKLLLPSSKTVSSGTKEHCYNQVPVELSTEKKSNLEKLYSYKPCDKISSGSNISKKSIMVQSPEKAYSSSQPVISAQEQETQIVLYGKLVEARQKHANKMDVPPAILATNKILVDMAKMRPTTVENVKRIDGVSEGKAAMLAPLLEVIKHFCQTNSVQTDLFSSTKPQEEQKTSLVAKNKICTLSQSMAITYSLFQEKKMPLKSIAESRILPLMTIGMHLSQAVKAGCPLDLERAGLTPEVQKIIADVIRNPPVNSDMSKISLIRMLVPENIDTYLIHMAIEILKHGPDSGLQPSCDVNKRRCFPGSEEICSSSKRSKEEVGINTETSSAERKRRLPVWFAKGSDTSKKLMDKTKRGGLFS

target: Bifunctional 3'-5' exonuclease/ATP-dependent helicase WRN (Homo sapiens) (UniProt Q14191); assay: qHTS for Inhibitors of WRN Helicase; conditions: WRN helicase unwinding, fluorescent forked duplex, kinetic; activity change, negative = inhibition: at 114 µM (top of the series) unless noted; note: nearly all actives have a fitted effect of over 55% in size
Procedure, shortened: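 Kinetic fluorescence helicase assay: unwinding of a quenched forked DNA duplex (100 nM final) with 2 mM ATP final raises red fluorescence (525/598 nm). Compounds sat 15 min at room temperature with 20 nM WRN beforehand.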
% is set by controls: 0 for no effect and ±100 for the full control effect; potency is the fitted concentration of half-maximal effect.

| SMILES | Potency | activity change, negative = inhibition |
| --- | --- | --- |
| COc1ccccc1C(=O)N/C(=C/c1ccco1)C(=O)Nc1cccc(C(=O)O)c1 | inconclusive: 50.1 µM [inhibitor, partial curve] |  |
| O=C(O)Cc1ccc(-n2cccc2)cc1 | active: 39.8 µM |  |
| O=C(O)c1cn[nH]c1-c1cccc([N+](=O)[O-])c1 | inconclusive: 79.4 µM [inhibitor, partial curve] |  |
| COc1cccc(C(=O)Nc2cccc(C(=O)NC3=NN(c4c(Cl)cc(Cl)cc4Cl)C(=O)C3)c2)c1 | inconclusive: 22.4 µM [inhibitor, full curve] |  |
| NCCCC[C@@H]1NC(=O)c2cc([N+](=O)[O-])cc(I)c2SC[C@@H](C(=O)NCC(N)=O)NC(=O)CNC1=O | inconclusive: 79.4 µM [inhibitor, single point] |  |
| O=C1C(=C(I)I)c2ccccc2-c2ccccc21 | inconclusive: 10 µM [inhibitor, full curve] |  |
| O=C(/C=C/c1cccc2ccccc12)c1ccncc1 | inconclusive: 44.7 µM [inhibitor, partial curve] |  |
| CCOC(=O)c1sc2nc(C)[nH]c(=S)c2c1C |  | inactive: -1.56% |
| O=C1CCC(C(=O)Nc2ccc([N+](=O)[O-])cc2)N1 (stereo not drawn) | inconclusive: 22.4 µM [inhibitor, single point] |  |
| Nc1ncc(Br)cc1S(=O)(=O)Nc1cc(C(F)(F)F)cc(C(F)(F)F)c1 | inconclusive: 39.8 µM [inhibitor, single point] |  |
| Cc1cc2cc(CN3C(=O)c4ccccc4C3=O)ccc2n1C | inconclusive: 35.5 µM [inhibitor, single point] |  |
| CCCCN(C(=O)NC(=O)C1=C(N2CCOCC2)/C(=C/c2ccccc2)CC1)S(C)(=O)=O |  | inactive: -10.3% |
| c1ccc(Oc2nc(N3CCOCC3)nc(N3CCOCC3)n2)cc1 |  | inactive: -0.797% |
| O=C(O)C1OC(Oc2c(-c3ccc(O)c(O)c3)oc3cc(O)cc(O)c3c2=O)C(O)C(O)C1O (stereo not drawn) | inconclusive: 44.7 µM [inhibitor, partial curve] |  |
| COc1ccc(/C=C2\SC(=O)NC2=S)cc1OC | inconclusive: 50.1 µM [inhibitor, partial curve] |  |
| Cn1nnc(NC(=S)NC(=O)/C=C/c2ccco2)n1 | inconclusive: 50.1 µM [inhibitor, partial curve] |  |
| S=C(Nc1ccccc1)Nc1nc2ccccc2n1CCOc1ccccc1 |  | inactive: -1.3% |
| Fc1ccccc1NC(=S)N(CCN1CCCCC1)Cc1ccco1 | inconclusive: 89.1 µM [inhibitor, single point] |  |
| CCOc1ccc(NC(=O)CN(C)C(=O)CN2C(=O)c3ccc([N+](=O)[O-])cc3C2=O)cc1OCC |  | inactive: -19.4% |
| C[C@H](NC(=O)C1CC(=O)N(c2ccc3c(c2)OCO3)C1)C(=O)NC1CCCCC1 (stereo partly drawn) |  | inactive: -2.44% |
| O=C(NN1C(=O)c2cc(Br)ccc2NC1c1cc(Br)cc(Br)c1O)c1ccncc1 (stereo not drawn) | inconclusive: 22.4 µM [inhibitor, full curve] |  |

Single values from above:
In Potency, Fc1ccccc1NC(=S)N(CCN1CCCCC1)Cc1ccco1 shows inconclusive: 89.1 µM [inhibitor, single point]
In Potency, O=C1C(=C(I)I)c2ccccc2-c2ccccc21 shows inconclusive: 10 µM [inhibitor, full curve]
In activity change, negative = inhibition, c1ccc(Oc2nc(N3CCOCC3)nc(N3CCOCC3)n2)cc1 shows inactive: -0.797%

Further structures follow:

| SMILES | Potency | activity change, negative = inhibition |
| --- | --- | --- |
| Cn1cc([N+](=O)[O-])c(C(=O)n2cccn2)n1 |  | inactive: 0.923% |
| COc1ccc(N(CC(=O)NCc2ccc3c(c2)OCO3)S(=O)(=O)c2ccccc2[N+](=O)[O-])c(OC)c1 | inconclusive: 89.1 µM [inhibitor, single point] |  |
| Cc1cc(C)cc(N2C(=O)CC(Sc3ccccc3C(=O)O)C2=O)c1 (stereo not drawn) | inconclusive: 7.94 µM [inhibitor, full curve, poor fit] |  |
| O=C(CCN1C(=O)/C(=C\c2cccc(Br)c2)SC1=S)NCCCN1CCOCC1 | inconclusive: 89.1 µM [inhibitor, single point] |  |
| O=C(O)c1ccc(NN=CC2=C(N3CCOCC3)/C(=C/c3ccccc3)CC2)cc1 | inconclusive: 10 µM [inhibitor, partial curve, poor fit] |  |
| O=[N+]([O-])c1ccccc1/C=N/Nc1nc(N2CCCC2)nc(N2CCCC2)n1 |  | inactive: -24.9% |
| CCOc1ccc2nc(NC3=NC(C)(C)C=C(C)N3)nc(C)c2c1 |  | inactive: 85.7% |
| O=S(=O)(Nc1ccccc1N1CCCCC1)c1ccc(Cl)s1 | inconclusive: 89.1 µM [inhibitor, single point] |  |
| CCCCNS(=O)(=O)c1ccc2nc(SCC(=O)c3ccc(C#N)cc3)[nH]c2c1 | inconclusive: 89.1 µM [inhibitor, single point] |  |
| CN1CCS/C1=C/C=C1/SC(=S)N(Cc2ccccc2)C1=O | inconclusive: 56.2 µM [inhibitor, partial curve] |  |
| Cc1ccc(C(=O)NC(=S)Nc2ccccc2N2CCOCC2)cc1C | inconclusive: 28.2 µM [inhibitor, single point] |  |
| O=C(Nc1nnc(SCCC2OCCO2)s1)C1CC(=O)N(c2ccc(F)cc2)C1 (stereo not drawn) | inconclusive: 79.4 µM [inhibitor, partial curve] |  |
| C[C@@H]1NC(=O)c2cc([N+](=O)[O-])cc(I)c2OCC[C@@H](C(=O)NC(CC(=O)O)C(N)=O)NC(=O)[C@H](CCC(=O)O)NC1=O (stereo partly drawn) |  | inactive: -0.264% |
| CCc1nnc(NS(=O)(=O)c2ccc(NCc3cc(Cl)cc(Cl)c3O)cc2)s1 | inconclusive: 14.1 µM [inhibitor, full curve, poor fit] |  |
| CCCCn1c(N)c(N(CCOC)C(=O)c2cc(-c3ccco3)nc3ccccc23)c(=O)[nH]c1=O | inconclusive: 79.4 µM [inhibitor, single point] |  |
| COCCCC1CCN(C(=O)C2CCC(=O)N(C3CCCCCC3)C2)CC1 (stereo not drawn) | inconclusive: 89.1 µM [inhibitor, single point] |  |
| COC(=O)c1ccc(C2N=C(c3cccs3)CC(c3ccccc3O)N2)cc1 (stereo not drawn) | inconclusive: 79.4 µM [inhibitor, partial curve] |  |
| CC1C(=O)N2CCCc3cc(NC(=O)C(=O)NCc4ccccn4)cc1c32 (stereo not drawn) |  | inactive: 3.66% |
| CC(C)(C)c1cc(CCC(=O)N2CCCC2)cc(C(C)(C)C)c1O |  | inactive: 10.2% |
| CN(C)c1nc(=NCc2cccs2)ss1 | active: 22.4 µM |  |
| Cc1sc(NC(=O)CN(C(=O)c2ccccc2F)C2CCCC2)c(C(N)=O)c1C | inconclusive: 39.8 µM [inhibitor, single point] |  |
